According to patent publication US7097862B2, “Methods of inhibiting tumor necrosis factor” (priority 1992, dated 2006):
Some of these results come from one statement about several compounds together. For at least one compound, name, drawing or mass did not settle the structure.

Tested on: TNF production in the HL-60 cell line
Assay: TNF production in PMA-stimulated HL-60 cells (ELISA)
Format: cell-based, human
Settings: pentoxaphyllin control

Structure (SMILES): CC(=O)CCCCn1c(=O)c2c(ncn2C)n(C)c1=O [pentoxaphyllin]
- TNF production: less than 5 pg/ml
